Laboratory results: the supplement of paper PMC10338343
± gives the standard deviation. The entries are a selection whose mix differs from that of the whole data set. Many entries were measured with a wide error.

tested on: MILI (PIWIL2) piRISC loaded with L1MC piRNA (26 nt); assay: pre-steady-state target cleavage rate (min^-1); MIWI and MILI are mouse PIWI proteins and EfPiwi is from a freshwater sponge; tags in brackets are library labels; higher = faster piRNA-guided slicing of the target; conditions: guide: L1MC piRNA 5'p-UAACUAAAUACUAUGCAAGCUGUAGG; auxiliary factor: 500 nM mouse GTSF1
Method: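 Cleave-'n-Seq: a library of target RNAs (target site embedded in constant flanks, ACAGCATTCCGCGTTAGTGATATCCG... 5' flank; DNA-blocked outside the site) at 0.1 nM was incubated with 1 nM active mouse MILI or MIWI piRISC (synthetic 5'-monophosphorylated piRNA guide) with or without 500 nM mouse GTSF1 at 33 °C for 1 min to 16 h. Uncleaved targets were sequenced and normalised to non-target controls, and the pooled three trials were fitted to a burst-and-steady-state model to give the pre-steady-state cleavage rate (min^-1; k3 is constrained to at most 1e-4). Sequence is the target site only; target names encode pairing extent (gX:gY) and contiguous / 1-mismatch / 2-mismatch / bulge geometry. Fits with R² ≤ 0 are excluded.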

Sequence	pre-steady-state target cleavage rate
UCCUGGAUGUGCUUAGCAUAGUAUUUAGUUA	0.124 ± 0.015
UCCUGGAUGAGCUUGCAUUCAAUUUAGUUA	0.00387 ± 0.0044
UCCUGGAUGUGCUUGCAUAGAUUUUAGAAA	0.000966 ± 0.011
UCCUGGAUGAGCUUGCAUACUAUUUAGAAA	0.00223 ± 0.0058
UCCUGGAUGUGCUUGCGUAGUAUUUAGUUA	0.0451 ± 0.013
UCCUGCUUCAGCUUGCAUAGUAUUUAGUUA	0.312 ± 0.019
UCCUGGAACAGCAACCAUAGUAUUUUCAAA	0.00126 ± 0.0053
UCCUGGUACAGCUUGCAUUGUAUUUAGUUA	0.171 ± 0.017
UCCUGGAUGUGCUUGCAUAGUAUUUAUUUA	0.0305 ± 0.011
UCCUGGAUGUCGAAGCAUAGUAGUUUAGUUA	0.00907 ± 0.0034
UCCUGGAUCAGCUUCCAUAGUAUUUACAAA	0.00232 ± 0.006
UCCUGGAUGUCGAACCAUAGUAUUUAGAUA	0.000279 ± 0.021
UCCUGGUUCAGCUUGCAUAGUAUUUACUUA	0.0561 ± 0.02
UCCUCCUACAGCUUCCAUAGUAUUUACUUA	0.0137 ± 0.0064
UCCUGGAUGAGCUUGCAUAGUUAAUACAAA	0.000903 ± 0.0091
UCCUGGAUCAGCUUGCAUAGAAUUUUCAAA	0.00426 ± 0.0044
UCCUCGAACAGCUUGCAUAGUAUUUAGAAA	0.137 ± 0.019

same assay, conditions: guide: L1MC piRNA 5'p-UAACUAAAUACUAUGCAAGCUGUAGG; auxiliary factor: none (no GTSF1)

Sequence	pre-steady-state target cleavage rate
UCCUGGAUGUCGUUGGAUAGUUUUUAGUUA	0.000284 ± 0.021
UCCUGGAUGUGCUUAGCAUAGUAUUUAGUUA	0.00625 ± 0.0028
UCCUGGAUGAGCUUGCAUUCAAUUUAGUUA	0.00165 ± 0.0059
UCCUGGAUGUGCUUGCAUAGAUUUUAGAAA	0.00117 ± 0.0042
UCCUGGAUGAGCUUGCAUACUAUUUAGAAA	0.000632 ± 0.011
UCCUGGAUGUGCUUGCGUAGUAUUUAGUUA	0.0145 ± 0.0037
UCCUGGAACAGCUUGCAUACUAUUAAGUUA	0.000614 ± 0.0084
UCCUGGAACAGCAACCAUAGUAUUUUCAAA	0.000444 ± 0.013
UCCUGGUACAGCUUGCAUUGUAUUUAGUUA	0.0101 ± 0.0041
UCCUGGUACUGCUUGCAUAGUAUAUAGUUA	0.00197 ± 0.0042
UCCUGGAUGUGCUUGCAUAGUAUUUAUUUA	0.00177 ± 0.0045
UCCUGGAUGUCGAAGCAUAGUAGUUUAGUUA	0.00276 ± 0.0022
UCCUGCUACAGCUUGCAUAGUAUUUAGGUA	0.00181 ± 0.0043
UCCUGGAUCAGCUUCCAUAGUAUUUACAAA	0.000348 ± 0.013
UCCUGGAUGUCGAACCAUAGUAUUUAGAUA	0.000189 ± 0.018
UCCUGGUUCAGCUUGCAUAGUAUUUACUUA	0.00288 ± 0.0034
UCCUCCUAGAGCUUCCAUAGUAUUUAGUUA	0.00118 ± 0.0046
UCCUCCUACAGCUUGCAUACUAUUUACUUA	0.00122 ± 0.0047
UCCUCCUACAGCUUCCAUAGUAUUUACUUA	0.000176 ± 0.015
UCCUGGAUGAGCUUGCAUAGUUAAUACAAA	0.00107 ± 0.0062
UCCUGGAUCAGCUUGCAUAGAAUUUUCAAA	0.000732 ± 0.008
UCCUGGAUCAGCUUGCAUAGUUAUUUCAAA	0.000578 ± 0.0079
UCCUCGAACAGCUUGCAUAGUAUUUAGAAA	0.00206 ± 0.0036
